Assay results taken from publication PMC5341297.
No constants are given. Whether binding was seen depends on the method and setting. In cells and extracts the contact can be indirect. Some binding calls cover weakened binding; strength is not graded here. One block for each substance: values may come before it.

The chains behind the UniProt entries cited, without tags or fusion partners. Residues count along the entry.
UniProt P69566: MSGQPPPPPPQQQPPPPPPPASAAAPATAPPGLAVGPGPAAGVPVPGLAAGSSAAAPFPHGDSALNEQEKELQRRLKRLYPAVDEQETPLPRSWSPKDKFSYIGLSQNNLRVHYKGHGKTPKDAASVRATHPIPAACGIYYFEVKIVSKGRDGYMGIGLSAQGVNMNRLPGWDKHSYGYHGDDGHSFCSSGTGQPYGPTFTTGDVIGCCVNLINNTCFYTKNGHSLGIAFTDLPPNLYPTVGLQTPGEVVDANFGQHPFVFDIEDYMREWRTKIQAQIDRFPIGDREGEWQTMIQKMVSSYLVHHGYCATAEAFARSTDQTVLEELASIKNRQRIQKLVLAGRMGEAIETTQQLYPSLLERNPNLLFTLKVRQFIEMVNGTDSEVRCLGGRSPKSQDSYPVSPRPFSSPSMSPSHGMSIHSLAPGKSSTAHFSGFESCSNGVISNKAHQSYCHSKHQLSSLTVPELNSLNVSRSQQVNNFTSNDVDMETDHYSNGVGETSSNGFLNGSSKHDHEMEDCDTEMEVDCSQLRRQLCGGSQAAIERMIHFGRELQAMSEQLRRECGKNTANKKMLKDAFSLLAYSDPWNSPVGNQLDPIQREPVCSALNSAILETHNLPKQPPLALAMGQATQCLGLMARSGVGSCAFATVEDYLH
UniProt P05532, residues 25-979: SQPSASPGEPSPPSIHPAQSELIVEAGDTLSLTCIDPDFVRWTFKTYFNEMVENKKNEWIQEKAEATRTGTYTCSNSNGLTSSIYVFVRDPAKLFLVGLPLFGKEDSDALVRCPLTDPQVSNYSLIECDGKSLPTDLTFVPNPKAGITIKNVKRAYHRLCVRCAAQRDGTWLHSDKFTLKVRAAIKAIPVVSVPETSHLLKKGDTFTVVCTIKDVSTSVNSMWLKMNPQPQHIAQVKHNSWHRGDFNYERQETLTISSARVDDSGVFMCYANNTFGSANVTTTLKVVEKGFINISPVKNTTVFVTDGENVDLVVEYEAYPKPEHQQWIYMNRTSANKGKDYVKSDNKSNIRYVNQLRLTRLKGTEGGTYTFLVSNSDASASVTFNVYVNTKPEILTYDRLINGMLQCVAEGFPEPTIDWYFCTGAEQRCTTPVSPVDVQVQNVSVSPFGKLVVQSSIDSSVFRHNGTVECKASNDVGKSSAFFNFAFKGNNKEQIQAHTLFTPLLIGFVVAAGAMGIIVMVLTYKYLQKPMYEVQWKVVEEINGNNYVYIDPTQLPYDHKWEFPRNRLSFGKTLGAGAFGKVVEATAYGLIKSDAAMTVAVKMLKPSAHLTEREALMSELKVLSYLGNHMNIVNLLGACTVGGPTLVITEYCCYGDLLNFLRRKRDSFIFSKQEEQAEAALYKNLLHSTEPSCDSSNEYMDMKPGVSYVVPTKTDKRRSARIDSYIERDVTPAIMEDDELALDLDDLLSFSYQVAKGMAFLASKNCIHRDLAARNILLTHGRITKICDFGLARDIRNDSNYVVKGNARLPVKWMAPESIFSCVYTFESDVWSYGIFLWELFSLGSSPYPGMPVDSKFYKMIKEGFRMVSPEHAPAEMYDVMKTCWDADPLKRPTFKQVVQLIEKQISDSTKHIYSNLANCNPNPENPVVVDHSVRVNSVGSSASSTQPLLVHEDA

Columns and labels:
[1] = target: RanBPM, endogenous in mouse testis (mouse (endogenous in testis)) (UniProt P69566); assay: co-IP; testis lysates of 3 month-old wild type mice, endogenous proteins; 1X RIPA buffer; IP overnight at 4°C with two anti-c-Kit antibodies or an anti-RanBPM antibody, protein G beads; Western blot
[2] = target: c-Kit (tyrosine kinase receptor), expressed from pcDNA 3.1-c-Kit (UniProt P05532); assay: co-IP; HEK293 cells transfected with RanBPM-HA and c-Kit (full-length or deletion mutants); lysed in 1X RIPA buffer; IP overnight at 4°C with anti-c-Kit or anti-HA antibody, protein G beads; Western blot; cells stimulated or not with 100 ng/mL SCF for 30', also with Dasatinib
[3] = target: c-Kit, endogenous in mouse testis (mouse (endogenous in testis)) (UniProt P05532); assay: co-IP; testis lysates of 3 month-old wild type mice, endogenous proteins; 1X RIPA buffer; IP overnight at 4°C with two anti-c-Kit antibodies or an anti-RanBPM antibody, protein G beads; Western blot
[4] = target: HA-tagged RanBPM (RanBPM-HA), expressed from pcDNA 3.1 (UniProt P69566); assay: co-IP; HEK293 cells transfected with RanBPM-HA and c-Kit (full-length or deletion mutants); lysed in 1X RIPA buffer; IP overnight at 4°C with anti-c-Kit or anti-HA antibody, protein G beads; Western blot; cells stimulated or not with 100 ng/mL SCF for 30', also with Dasatinib

binding [1]: binds
Substance: c-Kit, endogenous in mouse testis (from UniProt P05532 25-979) (receptor)

binding [2]: binds
Substance: HA-tagged RanBPM (RanBPM-HA), expressed from pcDNA 3.1 (from UniProt P69566 1-653)

binding [3]: binds
Substance: RanBPM, endogenous in mouse testis (from UniProt P69566 1-653)

binding [4]: binds
Substance: c-Kit (tyrosine kinase receptor), expressed from pcDNA 3.1-c-Kit (from UniProt P05532 25-979)
